Data reported in paper doi:10.1101/2021.01.27.428455 (bioRxiv, 2021).
Like-named read-outs stand apart in the source and are kept apart here. No constants are given. Whether binding was seen depends on the method and setting. Some results given as binding are weak or reduced against the parent protein; the word gives no strength. For some of these results: Where a sequence is shown, tags or fusion partners need not be part of it.

T1: Lactococcus lactis Csm3 Asp30Ala (Lactococcus lactis, UniProt L0CEA3, Asp30Ala)
T1 sequence: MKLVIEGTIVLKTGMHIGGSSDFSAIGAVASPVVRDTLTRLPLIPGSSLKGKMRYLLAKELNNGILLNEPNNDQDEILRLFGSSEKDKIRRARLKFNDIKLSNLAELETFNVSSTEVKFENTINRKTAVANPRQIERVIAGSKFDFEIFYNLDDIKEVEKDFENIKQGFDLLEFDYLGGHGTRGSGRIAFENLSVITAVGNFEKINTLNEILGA

T2: Lactococcus lactis Csm2 with N-terminal His6-tag (Lactococcus lactis) (UniProt L0CFW2)
T2 sequence: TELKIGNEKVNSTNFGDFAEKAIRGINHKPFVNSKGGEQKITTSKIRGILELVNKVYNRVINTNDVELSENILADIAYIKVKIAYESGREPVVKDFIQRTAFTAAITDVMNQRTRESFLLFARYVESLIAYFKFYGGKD

T3: Lactococcus lactis Csm3 with N-terminal His6-tag (ΔCsm2-LlCsm) (Lactococcus lactis) (UniProt L0CEA3)
T3 sequence: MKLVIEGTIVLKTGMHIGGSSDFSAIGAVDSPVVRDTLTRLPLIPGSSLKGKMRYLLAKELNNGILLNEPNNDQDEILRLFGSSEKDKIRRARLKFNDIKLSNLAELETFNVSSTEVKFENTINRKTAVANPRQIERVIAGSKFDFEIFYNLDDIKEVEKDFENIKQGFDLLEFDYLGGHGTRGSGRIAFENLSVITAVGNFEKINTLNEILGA


Columns and labels:
[1] = target: T1, Lactococcus lactis Csm3 Asp30Ala; assay: cryo-EM structure
[2] = target: T2, Lactococcus lactis Csm2 with N-terminal His6-tag (Lactococcus lactis); assay: cryo-EM structure
[3] = target: T2, Lactococcus lactis Csm2 with N-terminal His6-tag (Lactococcus lactis); assay: cryo-EM structure; remark: listed apart in the source
[4] = target: T2, Lactococcus lactis Csm2 with N-terminal His6-tag (Lactococcus lactis); assay: co-purification
[5] = target: T3, Lactococcus lactis Csm3 with N-terminal His6-tag (ΔCsm2-LlCsm) (Lactococcus lactis); assay: co-purification

Row | binding [1] | binding ([1]; record 2) | binding ([1]; record 3) | binding [2] | binding [3] | binding [4] | binding [5] | Binder
1 | binds | binds | binds | binds | binds | binds | – | Lactococcus lactis Csm5 (protein, UniProt L0CG31) MKKTYRVTLTALGPIFIGGGEKLKKYEYIFDKQKKVAHMIDHTKFTKYLLEKNLLDDFTSRVNSHFDLYDYLVNKKGIVFMPLVKYSVPVAQFRTEVKNRFGKPISSPPMNDLNTFVKDAFGRPYIPGSSLKGALRTAILNDLKEDTKENEVFAHLQVSDSETIDLENLKVYQKVDYSKTAKPLPLYRECLKPNTEITFTVSFDDEYLTLKKIQNALHKTYQHYYIKWLKGGKVGETLIKGVYDSHADELKKNTFALDQPSQNQGEIIYIGGGAGFVSKTLHYKSKNRDQARNDSFDILKQLFRTTYSKMRSVPDNVPVALKLAVETKTFNGRVTGKHYLEMGKARIKLEEL
2 | – | – | – | – | – | binds | – | Lactococcus lactis Csm3, wild type, untagged (protein, UniProt L0CEA3) MKLVIEGTIVLKTGMHIGGSSDFSAIGAVDSPVVRDTLTRLPLIPGSSLKGKMRYLLAKELNNGILLNEPNNDQDEILRLFGSSEKDKIRRARLKFNDIKLSNLAELETFNVSSTEVKFENTINRKTAVANPRQIERVIAGSKFDFEIFYNLDDIKEVEKDFENIKQGFDLLEFDYLGGHGTRGSGRIAFENLSVITAVGNFEKINTLNEILGA
3 | – | – | – | – | – | no binding | – | Lactococcus lactis Csm6, co-expressed with the LlCsm complex (protein, UniProt L0CEJ8 1-409) MKILISAVGDTDPIRNFHDGPLLHIVRVYRPEKIVLVHSERSLTKHDKLVKALKSIKDYSPEIIQDGVVLPDAQVAIFDEMYDTVSSIVKKYISDDEIILNISSATPQIISAMFAVNRISDFNVTAVQVKTPQHKSNEGLRHDNQEDIDKLIETNLDNQSDYENRTLADTGMKFSQDLTKRNLKALIDNYDYQGALELLKKQKSFSNIKELRKKLTEISDTIKIQGMPDKIVKSKLSNQAKSALNSYLNIDRNHKQGNIAEVLIRVKSLVEFILEDYLNNHFLDVITYKDGKPFLNASKYPEILKKFQEDAEMRGKEYHSGYLSLPAYIGILKFFEPNHDLLKHIYKIQEINQDRNKVAHSLQAFDRKNLKKVSSAVFASKQILLASFDIDNHWFSFYEDLNQEIKKLL
4 | binds | binds | binds | – | – | binds | binds | Lactococcus lactis Csm4 (protein, UniProt L0CFH1) MKIIKLYFESPVHFGEKRLSESKITFSADTLFSALMIEAVGLGKEDEFYQLASNNLVKFSDAFPFIDQYYYIPKPMFNLKLEKEDENPSKAFKKLLYVPIDSLEDYLSGGLDAYFERESFNLGKLALSEKVQQHDFKDSEPYNVGTFTFKENTGLYVLIEQTHPLLEELLENLQYSGIGGKRNSGYGKFKFEILEDSDIEDLFSAKGNRKILLSGALPKDAELEQALKNASYLLERRGGFVQSDTYATNLVKKQDLYVFKSGSTFENSFDGDIYQVGKKGNHPVYKYAKSFFLEVSV
